From paper PMC8079276

T1: UDP-N-acetylglucosamine-peptide N-acetylglucosaminyltransferase (mouse (endogenous in MEFs)) (UniProt Q8CGY8)
T1 sequence: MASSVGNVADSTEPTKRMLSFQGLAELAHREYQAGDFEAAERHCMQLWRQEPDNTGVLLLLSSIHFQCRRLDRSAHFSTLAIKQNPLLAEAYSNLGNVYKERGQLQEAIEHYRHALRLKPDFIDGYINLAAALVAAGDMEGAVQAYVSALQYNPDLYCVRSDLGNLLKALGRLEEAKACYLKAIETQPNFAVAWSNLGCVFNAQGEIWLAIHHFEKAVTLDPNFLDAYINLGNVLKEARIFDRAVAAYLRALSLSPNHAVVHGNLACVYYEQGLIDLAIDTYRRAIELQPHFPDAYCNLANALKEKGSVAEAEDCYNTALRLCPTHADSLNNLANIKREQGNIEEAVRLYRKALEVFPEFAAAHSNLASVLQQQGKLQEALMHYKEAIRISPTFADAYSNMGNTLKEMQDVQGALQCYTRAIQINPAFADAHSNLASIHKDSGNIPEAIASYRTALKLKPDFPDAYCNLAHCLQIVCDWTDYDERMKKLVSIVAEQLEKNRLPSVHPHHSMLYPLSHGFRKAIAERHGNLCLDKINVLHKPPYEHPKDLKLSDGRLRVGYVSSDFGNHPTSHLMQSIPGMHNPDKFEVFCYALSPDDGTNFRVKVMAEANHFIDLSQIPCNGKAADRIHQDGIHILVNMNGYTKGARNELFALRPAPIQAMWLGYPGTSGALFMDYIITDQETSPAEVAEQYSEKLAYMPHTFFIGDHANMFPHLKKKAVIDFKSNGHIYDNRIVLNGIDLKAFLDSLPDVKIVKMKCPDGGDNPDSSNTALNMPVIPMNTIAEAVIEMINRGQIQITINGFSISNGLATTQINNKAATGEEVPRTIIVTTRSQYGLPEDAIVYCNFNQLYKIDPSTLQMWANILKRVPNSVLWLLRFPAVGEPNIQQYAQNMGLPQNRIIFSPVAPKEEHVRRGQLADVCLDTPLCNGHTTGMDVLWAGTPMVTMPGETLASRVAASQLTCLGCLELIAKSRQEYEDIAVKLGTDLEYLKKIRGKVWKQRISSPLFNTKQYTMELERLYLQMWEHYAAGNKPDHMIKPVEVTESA

B1: Pls3 (protein, UniProt Q99K51 1-630)
chain: MDEMATTQISKDELDELKEAFAKVDLNSNGFICDYELHELFKEANMPLPGYKVREIIQKLMVDGDRNKDGKISFNEFVYIFQEVKSSDIAKTFRKAINRKEGICALGGTSELSSEGTQHSYSEEEKYAFVNWINKALENDPDCRHVIPMNPNTDDLFKAVGDGIVLCKMINLSVPDTIDERAINKKKLTPFIIQENLNLALNSASAIGCHVVNIGAEDLRAGKPHLVLGLLWQIIKIGLFADIELSRNEALAALLRDGETLEELMKLSPEELLLRWANFHLENSGWQKINNFSADIKDSKAYFHLLNQIAPKGQKEGEPRIDINMSGFNETDDLKRAESMLQQADKLGCRQFVTPADVVSGNPKLNLAFVANLFNKYPALTKPENQDIDWTLLEGETREERTFRNWMNSLGVNPHVNHLYADLQDALVILQLYERIKVPVDWSKVNKPPYPKLGANMKKLENCNYAVELGKNPAKFSLVGIGGQDLNDGNPTLTLAVVWQLMRRYTLNVLEDLGEGQKANDDIIVNWVNRTLSEAGKSTSIQSFKDKTISSSLAVVDLIDAIQPGCINYDLVKSGNLTEDDKHNNAKYAVSMARRIGARVYALPEDLVEVKPKMVMTVFACLMGRGMKRV
B2: Pmpcb (protein, UniProt Q9CXT8 46-489)
chain: QAAPQVVLNVPETQVTCLENGLRVASENSGLSTCTVGLWIDAGSRYENEKNNGTAHFLEHMAFKGTKKRSQLDLELEIENMGAHLNAYTSREQTVYYAKAFSRDLPRAVEILADIIQNSTLGEAEIERERGVILREMQEVETNLQEVVFDYLHATAYQNTALGRTILGPTENIKSINRKDLVDYITTHYKGPRIVLAAAGGVCHNELLELAKFHFGDSLCSHKGAIPALPPCKFTGSEIRVRDDKMPLAHLAIAVEAVGWAHPDTICLMVANTLIGNWDRSFGGGMNLSSKLAQLTCHGNLCHSFQSFNTSYTDTGLWGLYMVCEQATVADMLHVVQNEWKRLCTDVTESEVARAKNLLKTNMLLQLDGSTPICEDIGRQMLCYNRRIPIPELEARIDAVDAETVRRVCTKYIHDKSPAIAALGPIERLPDFNQICSNMRWIRD
B3: Ppm1g (protein, UniProt Q61074 1-542)
chain: MGAYLSQPNTVKCSGDGVGAPRLPLPYGFSAMQGWRVSMEDAHNCIPELDNETAMFSVYDGHGGEEVALYCAKYLPDIIKDQKAYKEGKLQKALQDAFLAIDAKLTTEEVIKELAQIAGRPTEDEDDKDKVADEDDVDNEEAALLHEEATMTIEELLTRYGQNCQKVPPHTKSGIGTGDEPGPQGLNGEAGPEDPSRETPSQENGPTAKGHTGFSSNSEHGTEAGQISEPGTATGEAGPSCSSASDKLPRVAKSKFFEDSEDESDEVEEEEDDSEECSEDEDGYSSEEAENEEDEDDTEEAEEDDDEEMMVPGMEGKEEPGSDSGTTAVVALIRGKQLIVANAGDSRCVVSEAGKALDMSYDHKPEDEVELARIKNAGGKVTMDGRVNGGLNLSRAIGDHFYKRNKNLPPQEQMISALPDIKVLTLTDDHEFMVIACDGIWNVMSSQEVVDFIQSKISQRDENGELRLLSSIVEELLDQCLAPDTSGDGTGCDNMTCIIICFKPRNTVELQAESGKRKLEEALSTEGAEDTGNSDKKKAKRD
B4: Yars (protein, UniProt Q91WQ3 1-528)
chain: MGDAPSPEEKLHLITRNLQEVLGEEKLKEILKERELKVYWGTATTGKPHVAYFVPMSKIADFLKAGCEVTILFADLHAYLDNMKAPWELLELRTSYYENVIKAMLESIGVPLEKLKFIKGTDYQLSKEYTLDVYRLSSVVTQHDAKKAGAEVVKQVEHPLLSGLLYPGLQALDEEYLKVDAQFGGVDQRKIFTFAEKYLPALGYSKRVHLMNPMVPGLTGSKMSSSEEESKIDLLDRKEDVKKKLKKAFCEPGNVENNGVLSFIKHVLFPLKSEFVILRDEKWGGNKTYTVYLELEKDFAAEVVHPGDLKNSVEVALNKLLDPIREKFNTPALKKLASAAYPDPSKQKPPAKGPAKNSEPEEVIPSRLDIRVGKILSVEKHPDADSLYVEKIDVGEAEPRTVVSGLVQFVPKEELQDRLVVVLCNLKPQKMRGVDSQGMLLCASVEGVSRQVEPLDPPAGSAPGERVFVQGYEKGQPDEELKPKKKVFEKLQADFKISEECIAQWKQTNFMTKLGFVSCKSLKGGNIS
B5: Cyr61 (protein, UniProt P18406 25-379)
chain: TCPAACHCPLEAPKCAPGVGLVRDGCGCCKVCAKQLNEDCSKTQPCDHTKGLECNFGASSTALKGICRAQSEGRPCEYNSRIYQNGESFQPNCKHQCTCIDGAVGCIPLCPQELSLPNLGCPNPRLVKVSGQCCEEWVCDEDSIKDSLDDQDDLLGLDASEVELTRNNELIAIGKGSSLKRLPVFGTEPRVLFNPLHAHGQKCIVQTTSWSQCSKSCGTGISTRVTNDNPECRLVKETRICEVRPCGQPVYSSLKKGKKCSKTKKSPEPVRFTYAGCSSVKKYRPKYCGSCVDGRCCTPLQTRTVKMRFRCEDGEMFSKNVMMIQSCKCNYNCPHPNEASFRLYSLFNDIHKFRD
B6: Starch-binding domain-containing protein 1 (protein, UniProt Q8C7E7 1-338)
chain: MGAVWSALLVGGGLAGALILWLLRGDSGAPGKDGVAEPPQKGAPPGEAAAPGDGPGGGGSGGLSPEPSDRELVSKAEHLRESNGHLISESKDLGNLPEAQRLQNVGADWVNAREFVPVGKIPDTHSRADSEAARNQSPGSHGGEWRLPKGQETAVKVAGSVAAKLPSSSLLVDRAKAVSQDQAGHEDWEVVSRHSSWGSVGLGGSLEASRLSLNQRMDDSTNSLVGGRGWEVDGKVASLKPQQVSIQFQVHYTTNTDVQFIAVTGDHESLGRWNTYIPLHYCKDGLWSHSVFLPADTVVEWKFVLVENKEVTRWEECSNRFLQTGHEDKVVHGWWGIH
B7: Tnpo1 (protein, UniProt Q8BFY9 1-898)
chain: MVWDRQTKMEYEWKPDEQGLQQILQLLKESQSPDTTIQRTVQQKLEQLNQYPDFNNYLIFVLTKLKSEDEPTRSLSGLILKNNVKAHFQNFPNGVTDFIKSECLNNIGDSSPLIRATVGILITTIASKGELQNWPDLLPKLCSLLDSEDYNTCEGAFGALQKICEDSAEILDSDVLDRPLNIMIPKFLQFFKHSSPKIRSHAVACVNQFIISRTQALMLHIDSFIENLFALAGDEEAEVRKNVCRALVMLLEVRMDRLLPHMHNIVEYMLQRTQDQDENVALEACEFWLTLAEQPICKDVLVRHLPKLIPVLVNGMKYSDIDIILLKGDVEEDETIPDSEQDIRPRFHRSRTVAQQHEEDGIEEEDDDDDEIDDDDTISDWNLRKCSAAALDVLANVYRDELLPHILPLLKELLFHHEWVVKESGILVLGAIAEGCMQGMIPYLPELIPHLIQCLSDKKALVRSITCWTLSRYAHWVVSQPPDTYLKPLMTELLKRILDSNKRVQEAACSAFATLEEEACTELVPYLAYILDTLVFAFSKYQHKNLLILYDAIGTLADSVGHHLNKPEYIQMLMPPLIQKWNMLKDEDKDLFPLLECLSSVATALQSGFLPYCEPVYQRCVNLVQKTLAQAMLNNAQPEQYEAPDKDFMIVALDLLSGLAEGLGGNIEQLVARSNILTLMYQCMQDKMPEVRQSSFALLGDLTKACFQHVKPCIADFMPILGTNLNPEFISVCNNATWAIGEISIQMGIEMQPYIPMVLHQLVEIINRPNTPKTLLENTAITIGRLGYVCPQEVAPMLQQFIRPWCTSLRNIRDNEEKDSAFRGICTMISVNPSGVIQDFIFFCDAVASWINPKDDLRDMFCKILHGFKNQVGDENWRRFSDQFPLPLKERLAAFYGV

Target: T1, UDP-N-acetylglucosamine-peptide N-acetylglucosaminyltransferase (mouse (endogenous in MEFs))
Assay: affinity purification with mass spectrometry; endogenous OGT immunoprecipitated (antibody AL24, protein G magnetic beads, TCL buffer: 50 mM Tris HCl, 150 mM NaCl, pH 7.5, 1% NP-40, 2 mM EDTA) from a 1:1:1 mix of SILAC-labelled lysates of WT, H2O2-treated (2.5 mM, 1.5 h) and OGT-null MEFs, precleared with rabbit IgG; in-gel trypsin digestion, LC-MS/MS; interactor if log2 WT or H2O2/null >=1 in 2 or more replicates

Binder | binding
B1 | binds
B2 | binds
B3 | binds
B4 | binds
B5 | binds
B6 | binds
B7 | binds

Results are given in words; binding and its absence hold for the method and conditions named. In cells and extracts the contact can be indirect. Here binding means that the protein was enriched with, or labelled near, the bait; the list need not be complete. Sequences can lack the tags named with a protein.
